B1: RbcS CTP: Pea Rubisco small subunit CTP including the 27 aa coding sequence, SEQ ID NO:1 (protein, listed as Pisum sativum)
chain: MASMISSSAVTTVSRASRGQSAAMAPFGGLKSMTGFPVRKVNTDITSITSNGGRVKCMQVWPPIGKKKFETLSYLPPLTRDSRA

Tested on: Arabidopsis Leaf
Assay: Western blot analysis of CTP-DMO constructs in transgenic Arabidopsis leaf
Assay type: in vivo, Arabidopsis thaliana

Molecule | processing and localization of DMO (transformed Arabidopsis, western blot) | # of Bands (Arabidopsis Leaf, immunoreactive DMO bands)
RbcSnoc-CTP: Pea Rubisco small subunit CTP lacking the 27 aa coding sequence, SEQ ID NO:2 (MASMISSSAVTTVSRASRGQSAAMAPFGGLKSMTGFPVRKVNTDITSITSNGGRVKC; listed as Pisum sativum) | properly processed DMO localized to the chloroplast | –
B1 | – | two
